The record followed here is publication PMC3365032.

By UniProt entry, the sequences of proteins in these tests, tags left out. Where a name states a change or a piece, a line headed by the entry shows the natural chain unless it says otherwise.
UniProt P08069: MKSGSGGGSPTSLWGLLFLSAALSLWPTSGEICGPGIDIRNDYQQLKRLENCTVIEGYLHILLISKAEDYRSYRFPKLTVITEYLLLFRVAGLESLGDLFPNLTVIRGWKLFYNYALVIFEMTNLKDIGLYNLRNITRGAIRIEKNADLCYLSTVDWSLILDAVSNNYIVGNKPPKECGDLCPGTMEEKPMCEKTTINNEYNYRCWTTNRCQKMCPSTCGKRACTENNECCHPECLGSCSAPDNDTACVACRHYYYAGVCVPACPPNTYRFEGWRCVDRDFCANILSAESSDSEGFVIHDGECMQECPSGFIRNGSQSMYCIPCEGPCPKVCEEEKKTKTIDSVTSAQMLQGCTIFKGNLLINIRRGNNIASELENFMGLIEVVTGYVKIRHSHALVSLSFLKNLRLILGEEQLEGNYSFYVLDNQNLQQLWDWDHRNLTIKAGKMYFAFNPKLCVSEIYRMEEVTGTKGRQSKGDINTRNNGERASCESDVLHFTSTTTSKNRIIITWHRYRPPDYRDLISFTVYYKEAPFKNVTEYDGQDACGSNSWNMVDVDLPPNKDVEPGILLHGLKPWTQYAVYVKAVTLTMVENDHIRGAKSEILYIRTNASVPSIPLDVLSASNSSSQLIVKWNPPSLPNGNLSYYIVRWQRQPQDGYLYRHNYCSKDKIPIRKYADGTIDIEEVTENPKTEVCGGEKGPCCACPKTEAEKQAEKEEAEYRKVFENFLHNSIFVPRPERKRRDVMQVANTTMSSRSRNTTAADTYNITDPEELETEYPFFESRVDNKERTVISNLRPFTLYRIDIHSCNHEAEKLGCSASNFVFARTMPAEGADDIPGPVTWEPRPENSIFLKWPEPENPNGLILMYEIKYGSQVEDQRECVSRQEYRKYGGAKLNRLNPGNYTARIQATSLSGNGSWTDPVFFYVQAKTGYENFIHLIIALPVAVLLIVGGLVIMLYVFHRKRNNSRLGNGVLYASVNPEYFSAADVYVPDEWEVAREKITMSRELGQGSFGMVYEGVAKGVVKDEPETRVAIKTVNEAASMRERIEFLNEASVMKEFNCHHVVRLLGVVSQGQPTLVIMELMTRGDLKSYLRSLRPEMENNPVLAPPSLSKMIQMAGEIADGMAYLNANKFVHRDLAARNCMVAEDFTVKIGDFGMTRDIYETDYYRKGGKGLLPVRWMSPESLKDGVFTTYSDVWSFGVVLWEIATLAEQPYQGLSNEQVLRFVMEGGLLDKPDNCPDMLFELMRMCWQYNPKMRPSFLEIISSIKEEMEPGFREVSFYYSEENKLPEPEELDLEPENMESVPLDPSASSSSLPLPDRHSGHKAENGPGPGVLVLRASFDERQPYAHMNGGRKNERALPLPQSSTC
UniProt P35568: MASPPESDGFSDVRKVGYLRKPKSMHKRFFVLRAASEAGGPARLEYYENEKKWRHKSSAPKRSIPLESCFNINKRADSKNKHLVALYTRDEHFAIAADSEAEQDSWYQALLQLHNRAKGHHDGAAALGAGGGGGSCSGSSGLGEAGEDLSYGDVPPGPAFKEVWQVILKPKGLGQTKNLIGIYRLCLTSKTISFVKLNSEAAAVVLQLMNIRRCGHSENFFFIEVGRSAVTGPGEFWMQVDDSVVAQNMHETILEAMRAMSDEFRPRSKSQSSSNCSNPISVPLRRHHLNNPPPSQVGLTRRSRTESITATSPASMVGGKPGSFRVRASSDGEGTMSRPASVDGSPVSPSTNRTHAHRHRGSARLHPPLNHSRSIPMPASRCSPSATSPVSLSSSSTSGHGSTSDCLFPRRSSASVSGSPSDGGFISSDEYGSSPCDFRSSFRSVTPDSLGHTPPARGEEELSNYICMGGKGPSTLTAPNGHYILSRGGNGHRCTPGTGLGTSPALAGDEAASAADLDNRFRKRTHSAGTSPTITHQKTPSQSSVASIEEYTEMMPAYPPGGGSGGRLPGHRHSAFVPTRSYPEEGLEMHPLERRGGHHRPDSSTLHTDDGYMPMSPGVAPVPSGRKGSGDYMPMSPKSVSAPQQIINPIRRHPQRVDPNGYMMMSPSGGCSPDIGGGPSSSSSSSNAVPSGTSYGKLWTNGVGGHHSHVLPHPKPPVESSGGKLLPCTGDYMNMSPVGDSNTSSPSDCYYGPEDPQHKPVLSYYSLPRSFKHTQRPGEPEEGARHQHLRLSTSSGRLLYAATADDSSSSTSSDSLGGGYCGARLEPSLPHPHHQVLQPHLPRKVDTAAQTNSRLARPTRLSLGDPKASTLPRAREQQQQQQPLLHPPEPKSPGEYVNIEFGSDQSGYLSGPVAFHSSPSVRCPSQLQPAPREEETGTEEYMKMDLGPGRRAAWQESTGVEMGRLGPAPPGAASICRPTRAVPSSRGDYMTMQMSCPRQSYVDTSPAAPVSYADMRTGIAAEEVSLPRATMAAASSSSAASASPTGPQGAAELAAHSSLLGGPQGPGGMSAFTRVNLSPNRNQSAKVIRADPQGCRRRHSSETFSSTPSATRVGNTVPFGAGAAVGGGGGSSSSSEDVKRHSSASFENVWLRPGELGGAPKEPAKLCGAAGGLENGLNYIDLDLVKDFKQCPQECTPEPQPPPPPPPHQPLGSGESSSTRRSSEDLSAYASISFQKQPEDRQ
UniProt P31946: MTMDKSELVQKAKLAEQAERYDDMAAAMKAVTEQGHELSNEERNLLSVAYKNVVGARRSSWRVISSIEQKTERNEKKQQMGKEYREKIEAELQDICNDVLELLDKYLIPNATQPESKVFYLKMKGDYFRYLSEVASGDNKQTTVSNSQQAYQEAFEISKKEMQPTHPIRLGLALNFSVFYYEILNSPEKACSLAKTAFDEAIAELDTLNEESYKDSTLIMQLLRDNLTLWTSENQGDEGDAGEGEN

No constants are given. Whether binding was seen depends on the method and setting. Binding can be weak; no strength is given.

This assay concerns the target IGF1R-C wild type (intracellular domain of the IGF1R fused to a LexA DNA binding domain) (human) (UniProt P08069). Kind of assay: two-hybrid; colony-lift filter assay with X-Gal; EGY48/LacZ yeast co-transformed with pLexA (IGF1R-C derivatives) and pB42 (adapter proteins) constructs; 30°C.

As for “IRS1 (insulin receptor substrate 1), B42-AD fusion (from UniProt P35568 1-1242)”, the binding entry is “binds”. Under “14-3-3β, B42-AD fusion (from UniProt P31946 1-246)” stands “binds”.

B1: GIPC (GAIP C-terminus-interacting protein 1, synectin) (protein, UniProt O14908 1-333)
chain: MPLGLGRRKKAPPLVENEEAEPGRGGLGVGEPGPLGGGGSGGPQMGLPPPPPALRPRLVFHTQLAHGSPTGRIEGFTNVKELYGKIAEAFRLPTAEVMFCTLNTHKVDMDKLLGGQIGLEDFIFAHVKGQRKEVEVFKSEDALGLTITDNGAGYAFIKRIKEGSVIDHIHLISVGDMIEAINGQSLLGCRHYEVARLLKELPRGRTFTLKLTEPRKAFDMISQRSAGGRPGSGPQLGTGRGTLRLRSRGPATVEDLPSAFEEKAIEKVDDLLESYMGIRDTELAATMVELGKDKRNPDELAEALDERLGDFAFPDEFVFDVWGAIGDAKVGRY
B1: the binding entry is given as “binds”.
